Measurements reported in PubChem BioAssay AID1458 (National Center for Advancing Translational Sciences (NCATS), 2008).
Among all 210,000 compounds or so, about 5,900 (2.8%) were called active. About 5% were inconclusive and are not listed. Calls follow the shape of the dose curve; as a rule, active = well fitted activation curve with a large enough effect; inconclusive = small, poorly fitted or top-dose-only effect; inactive = no such curve, though single readings can be large or run the other way. This is a selection; strong and weak results do not stand in their true shares. Entries without a call were filed so in the source.
Potency is read from the fitted curve at half-maximal effect.

Test: qHTS Assay for Enhancers of SMN2 Splice Variant Expression; also: nearly all actives have a fitted effect of over 55% in size; as to activity change, positive = activation: % of control where 0% means no effect
Conditions: HEK293 SMN2-luciferase splicing reporter, luminescence, 30-36 h; activity change, positive = activation: at 46.1 µM (top of the series) unless noted
Method in brief: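 HEK293 cells carry an SMN2 […]–luciferase reporter in which exon 7 inclusion puts luciferase in frame. Cells were plated 10-12 h before compound addition, then incubated 30-36 h at 37C. ONE-Glo luminescence was read; sodium butyrate at 4.5 mM final served as control.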
`CCOC(=O)c1ccc(N2Cc3ccccc3C2)cc1O` showed an activity change, positive = activation of 35.9%. Work on `CCCCCC(=O)Nc1ccc(-c2cn3cccnc3n2)cc1` yielded an activity change, positive = activation of 80.5%. In the case of `Cc1cc(C(=O)CSc2nnc(-c3ccc4c(c3)OCO4)o2)c(C)n1-c1ccc(F)cc1`, the “activity change, positive = activation” value is reported as inactive: -64.7%. For `COc1cccc(C2=CC(c3ccc(OC)c(OC)c3OC)n3nnnc3N2)c1` (stereo unspecified), the activity change, positive = activation was -50%. For `CCc1ccc(-c2nc(CSCC(=O)N3CCN(c4ccccn4)CC3)c(C)o2)cc1`, the activity change, positive = activation was -32.5%. With `Cc1ccc(S(=O)(=O)N(C)CCCC(=O)Nc2cccc3ccccc23)cc1` the activity change, positive = activation was -44.5%. For `CCOC(=O)CSc1ccc(S(=O)(=O)N(C)C2CCCCC2)cc1[N+](=O)[O-]`, the activity change, positive = activation was 52%. Molecule `Cc1ccc(N(CC(=O)NCCc2ccc(Cl)cc2)S(=O)(=O)N(C)C)cc1` has an activity change, positive = activation of 30.7%. `CSc1cccc(NC(=O)CN(C)S(=O)(=O)c2ccc(F)cc2)c1` showed an activity change, positive = activation of 18.6%. With `CCc1ccc(OCC(=O)N2c3ccccc3CCc3ccccc32)cc1` the activity change, positive = activation was -57.9%. `COCCn1cnnc1SCC(=O)Nc1ccccc1C(=O)Nc1ccc2c(c1)OCO2` gave an activity change, positive = activation of 50.4%. `N#Cc1ccc(C(=O)Nc2ccc(N3CCN(C(=O)c4ccco4)CC3)cc2)c(F)c1` gave an activity change, positive = activation of -30.7%. For `CCCNS(=O)(=O)c1ccc(CCC(=O)Nc2cc(Cl)ccc2Oc2ccccc2)cc1`, the “activity change, positive = activation” value was inactive: -62.2%. With `O=C(NCC1CCCO1)c1cccc(Oc2ccc([N+](=O)[O-])cc2Cl)c1` (stereo unspecified) the “activity change, positive = activation” value was inactive: -33.2%. In the case of `O=C(CSc1ccc2ccccc2c1)Nc1nc2ccccc2[nH]1`, the activity change, positive = activation is reported as -41.9%. With `C#CCOc1ccc(C2C(C(=O)OC)=C(C)NC3=C2C(=O)c2ccccc23)cc1OCC` (stereo unspecified) the activity change, positive = activation was 34.1%. For `Cc1ccc2n(n1)c(=O)c(Cc1ccccc1)c([O-])[n+]2-c1ccccc1`, the “activity change, positive = activation” value was inactive: -25.1%. With `NS(=O)(=O)c1ccc(CCNc2ncnc3sccc23)cc1` the activity change, positive = activation was -64.7%. For `O=C(Nc1ccc(NC(=O)c2ccco2)nc1)c1cccnc1`, the Potency was active: 11.2 µM. In the case of `Nc1c(C(=O)N2CCOCC2)sc2nc3c(cc12)CCC3`, the Potency is reported as active: 11.2 µM. `COC(=O)c1ccc(COc2ccccc2/C=N/Nc2cccc(C(=O)O)c2)cc1` showed an activity change, positive = activation of 34%. In the case of `N#C/C(=C\c1ccc(O)c(O)c1)C(=O)Nc1ccccc1`, the Potency is reported as active: 22.4 µM. In the case of `CC1CC(C)CN(c2nc3c(c(=O)n(C)c(=O)n3C)n2C)C1` (stereo unspecified), the activity change, positive = activation is reported as 49.4%. In the case of `CCCC[C@H]1C[C@@H]1[C@@H]1N(P(=O)(c2ccccc2)c2ccccc2)[C@](CO)(c2ccccc2)CC12CC2`, the “activity change, positive = activation” value is reported as inactive: -53.1%. In the case of `O=C(N/N=C\c1ccccn1)C1COc2cc3ccccc3cc2O1` (stereo unspecified), the activity change, positive = activation is reported as -64.9%. `COc1ccc(NC(=O)/C(C#N)=C/c2c(C)nn(-c3ccc(F)cc3)c2Cl)cc1OC` showed an activity change, positive = activation of 24.7%. `Cc1nc2ccc(C(C(F)(F)F)(C(F)(F)F)C(F)(F)F)cc2[nH]1` showed an activity change, positive = activation of 39.1%. Work on `Cc1ccc(-c2nc(-c3ccccn3)no2)cc1Cl` yielded an activity change, positive = activation of -41.5%. For `Cc1ccc(-n2c(-c3ccccc3)c[n+]3c2CCC3)cc1`, the “activity change, positive = activation” value was inactive: -32.1%. Work on `O=C(N/C(=C\c1ccc(Cl)cc1)C(=O)N1CCOCC1)c1ccc([N+](=O)[O-])cc1` yielded an activity change, positive = activation of -13.3%. In the case of `COc1cc(Nc2nc(-c3ccc(OC)c(OC)c3)nc3ccccc23)cc(OC)c1`, the “activity change, positive = activation” value is reported as inactive: -30%. With `COc1ccc(CCNC(=O)C2CCCN(Cc3nc(-c4cccc(Cl)c4)oc3C)C2)cc1OC` (stereo unspecified) the activity change, positive = activation was -48.9%. In the case of `CCc1ccc(-c2ccc(SCC(=O)Nc3nnc(C)s3)nn2)cc1`, the Potency is reported as active: 12.6 µM. Molecule `CCOC(=O)C1CCN(C(=O)COc2ccc(Cl)cc2C)CC1` has an activity change, positive = activation of -72.4%. `CC1Sc2ccccc2N(CC(=O)N(C(C)C)C(C)C)C1=O` (stereo unspecified) gave an activity change, positive = activation of 27.9%. In the case of `Cc1ccc(N(CC(=O)N2CCN(c3cccc(C)c3C)CC2)S(=O)(=O)c2c(C)nn(C)c2C)cc1`, the “activity change, positive = activation” value is reported as inactive: -49.8%. In the case of `Cn1cc(-c2nc3ccccc3[nH]2)c2ccccc21`, the Potency is reported as active: 22.4 µM. In the case of `Cc1cc(C(=O)CSc2nc3ccccc3o2)c(C)n1CC1CCCO1` (stereo unspecified), the “activity change, positive = activation” value is reported as inactive: -89%. `CC1CCN(c2ccc(C(=O)Nc3ccc4c(c3)OCO4)cc2[N+](=O)[O-])CC1` showed an activity change, positive = activation of -58.1% [at 1.84 µM]. In the case of `CCOC(=O)N1CCN(C(=O)COc2cccc3c2CCN(Cc2cccc(C)c2)C3=O)CC1`, the “activity change, positive = activation” value is reported as inactive: -40.1%. Molecule `Cc1ccc(S(=O)(=O)N2CCC(C(=O)NCCc3ccccc3)CC2)cc1` has an activity change, positive = activation of -45.8%. For `CCN(CC)CC(=O)Nc1ccc(C)cc1Br`, the activity change, positive = activation was 40.4%. For `CNS(=O)(=O)c1cc(OC)ccc1OC`, the activity change, positive = activation was 35.9%. With `O=C1CCC(=O)N1CC(=O)N1c2ccccc2Sc2ccccc21` the activity change, positive = activation was 21.3%. With `Cc1cccc(Nc2nc(-c3cccs3)cs2)n1` the Potency was active: 1.41 µM. With `O=C(Nc1ccc(S(=O)(=O)Nc2ccccc2)cc1)C1COc2ccccc2O1` (stereo unspecified) the activity change, positive = activation was -55.6%. In the case of `O=C(N/N=C/c1ccc2c(c1)OCO2)c1cc(-c2ccncc2)nc2ccccc12`, the “activity change, positive = activation” value is reported as inactive: -26.3%. For `Cc1ccc(CN=c2c([N+](=O)[O-])nn(-c3ccc4c(c3)OCCO4)n2O)cc1`, the activity change, positive = activation was -34.3%. Molecule `N#CCCN(CCC#N)C(=O)c1ccc2c(c1)OCO2` has an activity change, positive = activation of 28.5%. Molecule `CCC12CN(C(=O)c3ccc(C)cc3)CC(CC)(CN(C(=O)c3ccc(C)cc3)C1)C2=O` has an activity change, positive = activation of 12.9%. `CCCCNC(=O)CSc1nnc(-c2c[nH]c3ccccc23)n1CC1CCCO1` (stereo unspecified) gave an activity change, positive = activation of 48%. In the case of `COc1ccc(OC)c2sc(NC(=O)C3=COCCO3)nc12`, the “activity change, positive = activation” value is reported as inactive: -49.4%. Molecule `COc1ccccc1Cn1cc(C(=O)c2ccc(Cl)cc2)c(=O)c2ccccc21` has an activity change, positive = activation of 39.8%. `O=C1c2ccccc2C(=O)C1c1ccccc1` showed an activity change, positive = activation of 48.9%. In the case of `CSc1ccccc1NC(=O)Nc1ccc(Cl)cc1`, the “activity change, positive = activation” value is reported as inactive: -30.7%. For `COc1ccc2[nH]c(C)c(CCN(Cc3cccs3)C(=S)Nc3cccc(F)c3)c2c1`, the “activity change, positive = activation” value was inactive: -65.7%. With `CCc1ccccc1N(CC(=O)OC)S(C)(=O)=O` the activity change, positive = activation was 31.2%. Work on `CCOC(=O)NCC(C)(C)CNC(=O)OCC` yielded an activity change, positive = activation of 25.8%. With `CCCCN(C)CC(O)Cn1cc(/C=C/C(=O)c2ccc(C)cc2)c2ccccc21` (stereo unspecified) the “activity change, positive = activation” value was inactive: -71%. `Cc1ccc(-n2c(SCC(=O)NNC(=S)Nc3ccccc3)nc3ccccc3c2=O)cc1` showed an activity change, positive = activation of 42.2%. For `CC1=CCC(COC(=O)Nc2ccccc2)CC1` (stereo unspecified), the Potency was active: 17.8 µM. With `CC1CN(C(=O)Cc2ccc(-c3ccccc3)cc2)CC(C)O1` (stereo unspecified) the “activity change, positive = activation” value was inactive: -43.2%. Molecule `CCOc1cc(CNCCO)cc(Br)c1OCc1ccc(Cl)cc1Cl` has an activity change, positive = activation of -63.7%. In the case of `COc1ccc(/C(C)=N/NC(=O)c2nc(C)cc(C)n2)cc1`, the Potency is reported as active: 11.2 µM. Work on `CN1CCN(C(c2cccnc2)c2ccc3cccnc3c2O)CC1` (stereo unspecified) yielded an activity change, positive = activation of -65.2%. In the case of `O=C(/C=C/c1ccc(Br)cc1)c1ccc(NC2=NCCCS2)cc1`, the activity change, positive = activation is reported as -77.6%.
